From article PMC6058520, “Modification of translationally controlled tumor protein-derived protein transduction domain for improved intranasal delivery of insulin” (Drug Delivery, 2018)

Biological target: Human recombinant insulin (human)
Assay: turbidity (absorbance at 500 nm); 50 µL 0.2 mM insulin mixed with an equal volume of 0.2 or 0.5 mM PTD, 10 mM phosphate buffer pH 6.4, 96-well plate; both purified

Binder | binding
MIIFRALISHKK (amino acids in the D-form; acetylated at the N-terminus; C-terminus amidated) [D-TCTP-PTD 13] | binds
MIIFRLLASHKK (amino acids in the D-form; acetylated at the N-terminus; C-terminus amidated) [D-TCTP-PTD 13M2] | binds

These are yes or no findings as the source states them, for the method shown. Binding calls can cover weak binding; strength is not graded here.
